{"source": "patent US12624123B2", "about": "“Compositions and methods for reducing off-target toxicity of antibody drug conjugates” (The Research Foundation for The State University of New York, priority 2019, dated 2026)", "assay": "Competitive screening of derivative library phage media with free DM4", "type": "binding", "conditions": "10 nM DM4", "note": "Some of these results come from one statement about several compounds together."}
{"molecule": "DMOH9: affinity matured Anti-DM1/DM4 sdAb, SEQ ID NO:32 (protein, DMOH9) VHH: QVQLQESGGGLVQPGGSLRLSCAASGSIFGITYMGWYRQAPGKQREPVAMITSGGSTYYADSVKGRVTISRDNAKKTVYLQMNSLRPEDTSTYYCAAGYYRSDSPNRYDYWGQGTQVTVSS", "values": [{"measurement": "signal reduction when co-incubated with 10 nM of DM4", "result": "more than 50%"}]}
